Test results as given in PMC3422239.
Results are given in words; binding and its absence hold for the method and conditions named. For part of these data: Binding calls can cover weak binding; strength is not graded here. Where a sequence is shown, tags or fusion partners need not be part of it.

Experiments:
Assay in all cases: far-Western, overlay or dot blot; GFP-tagged IRS-2 pulled down with GFP-Trap from HEK293 or Flp-In HEK293 lysates, SDS-PAGE, nitrocellulose; membrane incubated overnight at 4°C with 14-3-3ζ-HRP, ECL; cells serum starved, IGF-1, or PI-103, wortmannin or Akti-1/2 before IGF-1; both purified
[1] = target: T1, GFP-IRS2-601-1321 (mouse) (UniProt P81122)
T1 sequence: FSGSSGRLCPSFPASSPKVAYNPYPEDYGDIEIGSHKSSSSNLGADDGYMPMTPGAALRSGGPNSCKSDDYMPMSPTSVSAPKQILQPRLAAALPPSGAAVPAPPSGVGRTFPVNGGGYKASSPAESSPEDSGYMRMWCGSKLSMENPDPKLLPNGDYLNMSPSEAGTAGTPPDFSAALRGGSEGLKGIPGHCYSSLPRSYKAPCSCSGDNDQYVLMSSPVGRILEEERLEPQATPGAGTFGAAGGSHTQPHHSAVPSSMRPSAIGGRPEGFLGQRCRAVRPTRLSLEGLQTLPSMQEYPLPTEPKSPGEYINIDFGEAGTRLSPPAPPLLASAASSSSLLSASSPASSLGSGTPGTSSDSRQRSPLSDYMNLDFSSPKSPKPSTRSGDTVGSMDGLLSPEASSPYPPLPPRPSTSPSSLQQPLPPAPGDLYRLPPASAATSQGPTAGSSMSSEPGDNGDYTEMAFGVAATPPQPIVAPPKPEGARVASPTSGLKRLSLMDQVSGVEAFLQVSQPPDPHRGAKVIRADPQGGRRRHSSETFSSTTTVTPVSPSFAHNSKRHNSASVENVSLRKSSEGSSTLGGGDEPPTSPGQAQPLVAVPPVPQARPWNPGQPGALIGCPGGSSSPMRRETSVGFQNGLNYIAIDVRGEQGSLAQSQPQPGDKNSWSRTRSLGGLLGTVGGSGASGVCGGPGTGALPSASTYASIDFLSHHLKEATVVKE

GFP-IRS2-1-300 (mouse) = target: T2, GFP-IRS2-1-300 (mouse) (UniProt P81122)
T2 sequence: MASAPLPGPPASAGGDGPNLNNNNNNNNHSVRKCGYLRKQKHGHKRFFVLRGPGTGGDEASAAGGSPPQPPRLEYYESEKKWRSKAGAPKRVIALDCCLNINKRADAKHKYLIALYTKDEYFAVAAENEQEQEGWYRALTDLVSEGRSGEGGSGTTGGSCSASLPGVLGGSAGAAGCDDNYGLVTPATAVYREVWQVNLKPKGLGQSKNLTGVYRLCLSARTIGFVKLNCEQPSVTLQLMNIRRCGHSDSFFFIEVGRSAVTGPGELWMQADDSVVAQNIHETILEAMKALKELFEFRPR

[2] = target: T3, GFP-IRS2-301-1321 (mouse) (UniProt P81122)
T3 sequence: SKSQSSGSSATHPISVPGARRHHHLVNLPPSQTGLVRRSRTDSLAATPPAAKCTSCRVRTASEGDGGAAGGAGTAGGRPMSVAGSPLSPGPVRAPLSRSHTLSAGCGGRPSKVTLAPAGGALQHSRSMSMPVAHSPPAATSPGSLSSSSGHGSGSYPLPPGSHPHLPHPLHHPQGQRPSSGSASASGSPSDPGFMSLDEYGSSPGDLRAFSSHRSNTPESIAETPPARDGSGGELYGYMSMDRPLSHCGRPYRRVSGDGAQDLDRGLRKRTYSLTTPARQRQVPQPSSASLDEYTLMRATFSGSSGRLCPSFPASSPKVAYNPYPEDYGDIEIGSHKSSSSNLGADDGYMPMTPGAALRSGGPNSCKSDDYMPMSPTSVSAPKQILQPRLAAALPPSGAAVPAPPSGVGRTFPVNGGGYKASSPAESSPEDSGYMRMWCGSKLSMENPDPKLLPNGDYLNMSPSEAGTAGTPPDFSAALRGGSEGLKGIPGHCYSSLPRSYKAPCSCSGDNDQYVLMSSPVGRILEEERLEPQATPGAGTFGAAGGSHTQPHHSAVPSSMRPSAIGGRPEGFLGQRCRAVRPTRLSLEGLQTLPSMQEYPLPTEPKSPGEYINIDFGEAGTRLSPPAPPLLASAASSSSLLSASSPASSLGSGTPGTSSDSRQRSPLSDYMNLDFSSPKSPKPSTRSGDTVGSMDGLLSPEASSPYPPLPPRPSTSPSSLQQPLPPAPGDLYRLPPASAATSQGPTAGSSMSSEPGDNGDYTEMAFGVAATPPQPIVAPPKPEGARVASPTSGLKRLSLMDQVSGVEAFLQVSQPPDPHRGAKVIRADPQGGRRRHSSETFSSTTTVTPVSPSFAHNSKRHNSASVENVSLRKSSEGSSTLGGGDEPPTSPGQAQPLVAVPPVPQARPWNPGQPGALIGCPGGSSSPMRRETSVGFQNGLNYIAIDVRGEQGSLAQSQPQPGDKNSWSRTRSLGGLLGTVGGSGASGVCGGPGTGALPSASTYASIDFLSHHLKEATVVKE

binding [1]: no binding
binding (GFP-IRS2-1-300 (mouse)): no binding
binding [2]: binds
Substance: Recombinant human 14-3-3ζ-HRP
